Measurements reported in PubChem BioAssay AID1347076 (National Center for Advancing Translational Sciences (NCATS), 2019).
Screen size: about 400,000 compounds; about 13,000 (3.2%) were called active. This list was built around the results that the source calls inconclusive (neither active nor inactive); the mix of calls is not that of the screen. The call rests on the fitted dose curve; in most records, active means well fitted cell-killing curve with a large enough effect; inconclusive means small, poorly fitted or top-dose-only effect, or effect the other way; inactive means flat fitted curve, though single readings scatter. Potencies of inconclusive entries are doubtful fits and often do not repeat.

Assay: qHTS assay for MDR1-selective chemotherapeutics: Primary screen using the drug-selected MDR subline cells KB-V1; further: nearly all actives have a fitted effect of over 60% in size
Details: KB-V1 MDR cells viability, CellTiter-Glo, 72 h; series mostly up to 46.1 µM
Procedure, shortened: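 Compound-treated KB-V1 multidrug-resistant cells, 72 h, 37 degrees C; viability by CellTiter-Glo. Fitted qHTS curves give the values.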
Potency means the concentration at half of the fitted maximal effect.

Compound | Potency
Cc1ccc2nc3n(c(=O)c2c1)-c1cc2ccccc2cc1C(=O)NC3Cc1ccccc1 (stereo not drawn) | inconclusive: 11.6 µM [cytotoxic, partial curve, poor fit]
CN(C(=O)c1ccc(-c2nn(C)c(=O)c3ccccc23)cc1)C1CCCCC1 | active: 4.11 µM
O=C(COC(=O)c1ccc2c(c1)OCCO2)NCc1ccc(Cl)cc1 | inconclusive: 0.0411 µM [rising, full curve]
CN1c2ccccc2-c2nc3ccccc3n2C1c1cccs1 (stereo not drawn) | inconclusive: 23.1 µM [cytotoxic, single point]
CCOC(=O)Cn1nnnc1C(CC)N(Cc1cccs1)Cc1cc2cc(C)ccc2[nH]c1=O (stereo not drawn) | inconclusive: 18.4 µM [cytotoxic, single point]
Cc1cc([N+](=O)[O-])nn1CCCC(=O)Nc1cccc(Cl)c1Cl | inactive
CCOC(=O)N1CCN(C(=O)/C(=C/c2cccc3ccccc23)NC(=O)c2ccc(OC)cc2)CC1 | inconclusive: 8.2 µM [cytotoxic, partial curve, poor fit]
O=C(O)CC(C(=O)NCc1ccccc1)C1CCCO1 (stereo not drawn) | inconclusive: 0.731 µM [rising, full curve, poor fit]
Cc1ccccc1N1C(=O)c2ccccc2N2C(=O)c3ccccc3C12 (stereo not drawn) | inactive
CCOC(=O)COc1cccc2c(=O)n(CC(=O)N3CCC(C)CC3)ccc12 | inactive
CCC(C)(C(=O)NC1CCCC1)N(Cc1ccco1)C(=O)c1ccc2c(c1)OCO2 (stereo not drawn) | inconclusive: 10.3 µM [cytotoxic, partial curve]
COc1ccc(-c2coc3c(C(=O)NCc4cccc(Cl)c4)cccc23)c(C)c1 | inconclusive: 20.6 µM [cytotoxic, single point]
Cn1c(=O)c2c(nc(-c3ccccc3)n2C)n(Cc2ccccc2)c1=O | active: 14.6 µM
CC(C)c1ccc(NC(=O)C2CCCN(S(=O)(=O)c3cccc4nsnc34)C2)cc1 (stereo not drawn) | inactive
COC(=O)c1cc(NS(=O)(=O)c2ccc(N3CCOCC3)c(N)c2)cc(C(=O)OC)c1 | inconclusive: 2.91 µM [rising, partial curve, poor fit]
Cc1oc2cc3oc(=O)c4c(c3cc2c1C)CCC4 | inconclusive: 5.8 µM [cytotoxic, full curve]
COc1ccc2c(c1)CC(C(=O)Nc1cccc(C)c1C)CO2 (stereo not drawn) | inactive
Cc1noc(C)c1CSc1ncnc2ccccc12 | inconclusive: 14.1 µM [cytotoxic, single point]
Brc1ccc(/C=N/Nc2ncnc3c2cnn3Cc2ccccc2)cc1 | inconclusive: 20.6 µM [cytotoxic, single point]
CCCc1nc2scc(-c3ccc(C)cc3)c2c(=O)n1N | inconclusive: 18.4 µM [cytotoxic, single point]
CCOC(=O)c1c(C)oc2c1c(C=NCc1ccccn1)c(O)c1ccccc12 | inconclusive: 23.1 µM [cytotoxic, partial curve]
N#Cc1cnc(SCC(=O)N2CCCC2)nc1N | inconclusive: 29.1 µM [rising, single point]
O=C(O)CCCCCNS(=O)(=O)c1cccc2c1C(=O)c1ccccc1C2=O | inconclusive: 18.4 µM [cytotoxic, single point]

Compound | Potency
N#Cc1cccc(OC2=NS(=O)(=O)c3ccccc32)c1 | inconclusive: 29.1 µM [rising, single point]
C=CCn1c(SCC(=O)Nc2cccnc2Cl)nnc1-c1ccccc1F | inconclusive: 18.4 µM [cytotoxic, single point]
O=C(O)c1ccc(NC(C(=O)c2ccccc2)c2ccccc2)cc1 (stereo not drawn) | inactive
N#CCSc1nc2ccccc2c(=O)n1CCC(=O)NC1CCCCC1 | inconclusive: 5.8 µM [cytotoxic, partial curve]
COC(=O)c1ccc(NS(=O)(=O)c2c(C)nc3sccn3c2=O)cc1 | inconclusive: 3.66 µM [cytotoxic, partial curve, poor fit]
COc1ccc(-c2csc3nc(C)nc(N4CCC(C)CC4)c23)cc1OC | inconclusive: 23.1 µM [cytotoxic, partial curve, poor fit]
CCOc1ccc(NC(=O)CSc2nnc(-c3cc(C)[nH]n3)n2N)cc1 | inconclusive: 16.4 µM [rising, single point]
CCOC(=O)Cn1c(=O)n(C2CCCCC2)c2nc(-c3ccc(OCC)cc3)nc(C(N)=O)c21 | inconclusive: 20.6 µM [cytotoxic, partial curve]
Cc1nc(N2CCN(C)CC2)c2sc(=S)n(-c3ccccc3)c2n1 | inactive
CC1CCN(CC(=O)Nc2ccc(S(=O)(=O)N3C(C)CCCC3C)cc2)CC1 (stereo not drawn) | inconclusive: 2.91 µM [cytotoxic, partial curve, poor fit]
COc1cc(/C=C(/C(=O)c2cccs2)c2nc3ccccc3[nH]2)cc(OC)c1O | active: 20.6 µM
O=S(=O)(c1ccc2c(c1)OCCO2)N1CCc2ccccc21 | inactive
COc1cc(NC(=S)NCCN2CCOCC2)cc(OC)c1OC | inconclusive: 6.51 µM [cytotoxic, single point]
COCCCN1C(=O)C(=O)/C(=C(/O)c2ccccc2)C1c1ccc2c(c1)OCO2 (stereo not drawn) | inactive
Cc1nn(CC(=O)N2CC(=O)Nc3ccccc32)c(C)c1[N+](=O)[O-] | inactive
CCOC(=O)N1CCN(Cc2nc3cc(NC(=O)c4ccco4)ccc3n2CC)CC1 | inconclusive: 16.4 µM [cytotoxic, single point]
Cc1ccc(NC(=O)c2cc3nc(-c4ccc5c(c4)OCO5)cc(C(F)(F)F)n3n2)cc1Cl | inactive
CC[C@H]1OC(=O)[C@H](C)[C@@H](O[C@H]2C[C@@](C)(OC)[C@@H](O)[C@H](C)O2)[C@H](C)[C@@H](O[C@@H]2O[C@H](C)C[C@H](N(C)C)[C@H]2O)[C@](C)(O)C[C@@H](C)C(=O)[C@H](C)[C@@H](O)[C@]1(C)O | inconclusive: 29.1 µM [cytotoxic, single point]
CCOC(=O)c1cc2c(=O)n3cccc(C)c3nc2n(CCCOC)c1=NC(=O)c1cccnc1 | active: 11.6 µM
O=C(NC1=NN(c2ccccc2)CC1)Nc1ccccc1F | inconclusive: 4.11 µM [rising, full curve, poor fit]
O=C(O)C1=C[C@H](c2cccs2)C[C@H](OCCCCO)O1 | inconclusive: 29.1 µM [rising, single point]
CCOC(=O)N1CC=C2C(C#N)=C(N)C(C#N)(C#N)[C@H](c3ccc(OCC)c(OCC)c3)[C@H]2C1 | active: 8.2 µM
Cc1cc(/C=C(\C#N)C(=O)Nc2ccccc2)c(C)n1-c1ccc2c(c1)OCO2 | inconclusive: 4.11 µM [cytotoxic, full curve]

Compound | Potency
O=C(Nc1ccccc1C(F)(F)F)c1ccc(CN2CCC(Cc3ccccc3)CC2)cc1 | inconclusive: 20.6 µM [cytotoxic, partial curve, poor fit]
Cn1ccs/c1=N\C(=O)Nc1ccccc1 | inconclusive: 29.1 µM [cytotoxic, single point]
CCN(CC)c1ccc(/C=N/NC(=O)c2cccc(S(=O)(=O)Nc3ccccc3OC)c2)c(O)c1 | inactive
Cc1ccc(N2C(=O)C(CN3CCCCC3)C2c2ccccc2)cc1 (stereo not drawn) | inconclusive: 23.1 µM [cytotoxic, partial curve, poor fit]
N/C(=N\OC(=O)c1ccco1)c1ccccn1 | inconclusive: 32.6 µM [rising, single point]
O=c1c(Cc2ccc(Cl)cc2)c(O)ccn1Cc1ccccc1 | inactive
COc1cccc(CNC(=O)Cc2ccc(NC(=O)C3=C(C)OCCS3)cc2)c1 | inconclusive: 23.1 µM [cytotoxic, single point]
CN(Cc1ccccc1)C(=O)c1cccc(NC(=O)Cc2ccc(NC(=O)C3CCN(C(=O)C4CCCCC4)CC3)cc2)c1 | inactive
O=C(Nc1ccc(N2CCCC2)cc1)c1ccccc1[N+](=O)[O-] | inconclusive: 23.1 µM [cytotoxic, single point]
CCc1ccc(CNC(=O)C2CCCN(c3nnc(C)c4c(C)n(-c5ccc(OC)cc5)nc34)C2)cc1 (stereo not drawn) | inconclusive: 16.4 µM [cytotoxic, single point]
CCCCCNC(=O)C1C(=O)Nc2ccccc2C(=O)N1c1ccc(OC)cc1 (stereo not drawn) | inactive
CCCOc1ccc(/C=C/c2c([N+](=O)[O-])c(=O)n(C)c(=O)n2C)cc1 | inactive
CC1(C(=O)NCc2ccc3c(c2)OCO3)CCN1C(=O)Cc1ccc(Cl)cc1Cl (stereo not drawn) | inconclusive: 8.2 µM [cytotoxic, partial curve]
CCOC(=O)C1CCCN(C(=O)c2cc(COc3ccc(C)nc3)on2)C1 (stereo not drawn) | active: 16.4 µM
Cc1cccc(NC(=O)C2C3C=CC(O3)C2C(=O)O)c1C (stereo not drawn) | inactive
O=C(c1ccccc1-c1ccccc1)N1CCN(c2ccccn2)CC1 | active: 2.59 µM
O=C(CCSc1nc(-c2ccco2)cc(C(F)(F)F)n1)N1CCCc2ccccc21 | inconclusive: 11.6 µM [cytotoxic, partial curve, poor fit]
COc1cccc(/C=N/NC(=O)CN(C)S(=O)(=O)c2ccccc2)c1OC | inconclusive: 16.4 µM [cytotoxic, single point]
CC(=O)Nc1cccc(-c2ccnc3c2CC(C)(C(=O)Nc2ccccc2)O3)c1 (stereo not drawn) | inactive
COC(=O)[C@@]1(Sc2ccc(C)cc2)CC(=O)N(c2ccccc2)[C@@H]1c1ccccc1 | active: 16.4 µM
CC(C(=O)Nc1ccccc1C(F)(F)F)n1nnc2sc3c(c2c1=O)CCCC3 (stereo not drawn) | inactive
CCOC(=O)c1c(C)[nH]c(C(=O)COC(=O)C2CC(=O)N(Cc3ccccc3)C2)c1C (stereo not drawn) | active: 3.26 µM

Reformatted comma-delimited: entries from further up
Compound,Potency
CN(Cc1ccccc1)C(=O)c1cccc(NC(=O)Cc2ccc(NC(=O)C3CCN(C(=O)C4CCCCC4)CC3)cc2)c1,inactive
O=C(Nc1ccc(N2CCCC2)cc1)c1ccccc1[N+](=O)[O-],"inconclusive: 23.1 µM [cytotoxic, single point]"
CCc1ccc(CNC(=O)C2CCCN(c3nnc(C)c4c(C)n(-c5ccc(OC)cc5)nc34)C2)cc1 (stereo not drawn),"inconclusive: 16.4 µM [cytotoxic, single point]"
